According to article PMC11229374, “Unlocking the potential of protein-derived peptides to target G-quadruplex DNA: from recognition to anticancer activity” (Nucleic Acids Research, 2024):

What was measured:
c-KIT2 G4 [1] = assay: Isothermal titration calorimetry (ITC) with c-KIT2 G4; format: binding, human; conditions: ITC at 25°C; for TΔS°: TΔS° = ΔH° – ΔG°; for ΔG°: ΔG° = -RT ln Ka
Procedure: (§1) ITC experiments were conducted at 25°C using a nano-ITC Low Volume calorimeter (TA instruments, Lindon, UT, USA). DNA and peptide solutions were prepared using the same batch of buffer (5 mM KH2PO4/K2HPO4 buffer containing 20 mM KCl, pH 7.0) to prevent differences in buffer composition and pH. Each titration consisted of 25 injections of a 2 μl peptide solution (280–400 μM) sequentially injected using a computer-controlled 50 μl syringe, into the calorimetric vessel (190 μl) containing the oligonucleotide (16–20 μM). A spacing of 300 s between each injection was applied to allow the system to reach the equilibrium. The heat generated by peptide dilution was assessed in a control experiment by injecting the peptide solution into the buffer (Supplementary Figure S30). All measurements were performed in triplicate. Subsequently, the interaction heat for each injection was calculated considering the correction for the heat of peptide dilution. The corrected heat values were plotted as a function of the molar ratio to provide binding isotherms. The isotherms were fitted with a multiple-sites binding model using the NanoAnalyze software (TA instruments) provided with the instrument. This analysis provided the equilibrium binding constant (Ka), binding enthalpy (ΔH°), and stoichiometry of interaction (n). The equilibrium dissociation constant (Kd), Gibbs free-energy change and entropy change were determined using the following relationships: Kd = 1/Ka, ΔG° = -RT ln Ka (R = 8.314 J mol^−1 K^−1, T = 298.15 K), and TΔS° = ΔH° – ΔG°.

HER2 G4 [2] = assay: CD secondary structure estimation (BeStSel), peptide with HER2 G4; format: binding, human
[3] = CD secondary structure estimation (BeStSel), peptide alone; format: physicochemical; conditions: peptide 4 µM alone, CD 20°C, 5 mM KH2PO4/K2HPO4 pH 7.0, 20 mM KCl
c-KIT2 G4 [4] = assay: CD secondary structure estimation (BeStSel), peptide with c-KIT2 G4; format: binding, human
HER2 G4 [5] = assay: Isothermal titration calorimetry (ITC) with HER2 G4; format: binding, human; conditions: ITC at 25°C
Procedure: as §1

[6] = peptide 4 µM + HER2 G4 2 µM, CD 20°C, G4 signal subtracted
[7] = peptide 4 µM + c-KIT2 G4 2 µM, CD 20°C, G4 signal subtracted

With Ac-NHTANSIRHRFRVYLSKRL-NH2 [Myb^A400] the “n (stoichiometry of interaction)” value (c-KIT2 G4 [1]) was 2, the “TΔS°” value (c-KIT2 G4 [1]) was “–21.0 (±9.0) kJ mol^−1” and the “ΔG°” value (c-KIT2 G4 [1]) was “–39.2 (±7.0) kJ mol^−1”.
In the case of Ac-NHTGNSIRHRFRVYLAKRL-NH2 [Myb^A412], the “n (stoichiometry of interaction)” value (c-KIT2 G4 [1]) is reported as 2, the “TΔS°” value (c-KIT2 G4 [1]) is reported as “–20.4 (±7.2) kJ mol^−1” and the “ΔG°” value (c-KIT2 G4 [1]) is reported as “–38.4 (±5.8) kJ mol^−1”.
For “Ac-NHTGNSIRHRFRVYLSKRL-NH2 [Myb^397–415]”, the “increase in the estimated helical content” value (HER2 G4 [2]; CD 200–250 nm, 20°C, in the presence of HER2 G4, G4 signal subtracted) was ~20%, the “Estimated secondary structure content, Antiparallel” value (HER2 G4 [2]; [6]) was 20.5% and the “Estimated secondary structure content, Helix” value (HER2 G4 [2]; [6]) was 22.7%. For the same substance, the “Estimated secondary structure content, Others” value (HER2 G4 [2]; [6]) was 43.1%, the “Estimated secondary structure content, Parallel” value (HER2 G4 [2]; [6]) was 0.0% and the “Estimated secondary structure content, Turn” value (HER2 G4 [2]; [6]) was 13.8%. For the same substance, the “Estimated secondary structure content, Antiparallel” value [3] was 23.2%, the “Estimated secondary structure content, Helix” value [3] was 0.0% and the “Estimated secondary structure content, Others” value [3] was 57.6%. For the same substance, the “Estimated secondary structure content, Parallel” value [3] was 0.0%, the “Estimated secondary structure content, Turn” value [3] was 19.2% and the “n (stoichiometry of interaction)” value (c-KIT2 G4 [1]) was 2. The “TΔS°” value (c-KIT2 G4 [1]) was “–9.2 (±3.1) kJ mol^−1”, the “ΔG°” value (c-KIT2 G4 [1]) was “–38.2 (±2.3) kJ mol^−1” and the “increase in the estimated helical content” value (c-KIT2 G4 [4]; CD 200–250 nm, 20°C, in the presence of c-KIT2 G4, G4 signal subtracted) was “approximately 10%”. The “Estimated secondary structure content, Antiparallel” value (c-KIT2 G4 [4]; [7]) was 22.4%, the “Estimated secondary structure content, Helix” value (c-KIT2 G4 [4]; [7]) was 10.0% and the “Estimated secondary structure content, Others” value (c-KIT2 G4 [4]; [7]) was 48.6%. For the same substance, the “Estimated secondary structure content, Parallel” value (c-KIT2 G4 [4]; [7]) was 0.0%, the “Estimated secondary structure content, Turn” value (c-KIT2 G4 [4]; [7]) was 19.1% and the “n (stoichiometry of interaction)” value (HER2 G4 [5]) was 3. For the same substance, the “TΔS°” value (HER2 G4 [5]; TΔS° = ΔH° – ΔG°) was “–24.4 (±5.1) kJ mol^−1”, the “ΔH°” value (HER2 G4 [5]; triplicate) was “–64.4 (±1.1) kJ mol^−1” and the “ΔG°” value (HER2 G4 [5]; ΔG° = -RT ln Ka) was “–40.0 (±4.0) kJ mol^−1”.
